Data: PubChem BioAssay AID504834 (National Center for Advancing Translational Sciences (NCATS), 2011)
The whole screen tested about 320,000 compounds, of which about 22,000 (6.9%) were called active. The shares of active, inactive and inconclusive entries below differ from those in the screen. The call rests on the fitted dose curve; in most records, active means well fitted inhibition curve with a large enough effect; inconclusive means small, poorly fitted or top-dose-only effect, or another doubt; inactive means no such curve, though single readings can be large or run the other way. Potencies of inconclusive entries are doubtful fits and often do not repeat.

experiment: Primary qHTS for delayed death inhibitors of the malarial parasite plastid, 96 hour incubation; conditions: P. falciparum luciferase reporter growth; series mostly up to 28.7 µM
Outline: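 Two-generation exposure (96 h) targets delayed-death phenotype. Reporter parasites carrying integrated firefly luciferase, in red cells at 2% hematocrit and 0.05% parasitemia final, kept at 37 C, 5% CO2; luminescence loss indicates inhibition.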
On the % scale 0 is the no-effect control and ±100 the full control effect; potency means the concentration at half of the fitted maximal effect.

Row | Structure (SMILES) | Potency | activity change, negative = inhibition
1 | COC(C(=O)N/N=C(\C)c1ccc(C(C)(C)C)cc1)c1ccccc1 (centres undefined) | inconclusive: 6.57 µM [inhibitor, partial curve, poor fit] | –
2 | COc1ccc(CCC(=O)Nc2cccc(S(=O)(=O)N3CCOCC3)c2)cc1OC | inactive | –
3 | CCN(C(=O)C(C)Sc1ccc(S(=O)(=O)N2CCN(C)CC2)cn1)c1ccccc1 (centres undefined) | active: 11.7 µM | –
4 | Cc1cc(-c2ccccc2)nc(Oc2cccc(C(F)(F)F)c2)c1S(C)(=O)=O | inconclusive: 0.37 µM [inhibitor, partial curve, poor fit] | –
5 | O=S(=O)(NC1CCCCC1N1CCC(O)CC1)c1ccccc1 (centres undefined) | inconclusive: 18.5 µM [inhibitor, single point] | –
6 | CCCCNc1nc2ccccc2n1CC(=O)Nc1ccc2c(c1)OCCO2 | inconclusive: 18.5 µM [inhibitor, single point] | –
7 | CC1=C(C(=O)OCc2ccccc2)C(c2cccc([N+](=O)[O-])c2)NC(=O)N1C (centres undefined) | inconclusive: 11.7 µM [inhibitor, single point] | –
8 | O=C1OC(c2ccc(Br)cc2)=N/C1=C\N1CC2CC(C1)c1cccc(=O)n1C2 (centres undefined) | inconclusive: 18.5 µM [inhibitor, single point] | –
9 | Cc1ccc(C)c(C(=O)N(C)CC(=O)Nc2ccccc2C(F)(F)F)c1 | inactive | –
10 | CC(=O)Nc1ccc(OC(=O)c2ccccc2N)cc1 | inactive | –
11 | COc1cccc(CN(Cc2ccccc2F)S(=O)(=O)c2ccc(S(=O)(=O)NCc3ccccc3)cc2)c1 | inconclusive: 18.5 µM [inhibitor, single point] | –
12 | O=C(CSc1nc(-c2ccccc2)cs1)NC(=O)NCc1ccco1 | inconclusive: 18.5 µM [inhibitor, single point] | –
13 | CN(C)S(=O)(=O)c1ccc2nnn(OCC(=O)NC34CC5CC(CC(C5)C3)C4)c2c1 | inconclusive: 10.4 µM [inhibitor, single point] | –
14 | COc1ccccc1C1CN(c2ccc(F)cc2F)N=C1c1cccs1 (centres undefined) | inconclusive: 11.7 µM [inhibitor, partial curve, poor fit] | –
15 | O=C(Oc1ccccc1)N1CCOCC1 | inconclusive: 16.5 µM [inhibitor, single point] | –
16 | CCCCCn1c(SCCOCC)nc2c1c(=O)[nH]c(=O)n2C | inconclusive: 18.5 µM [inhibitor, single point] | –
17 | Cc1nc(SCC(=O)NCc2ccco2)c2c3c(sc2n1)CCCC3 | inconclusive: 10.4 µM [inhibitor, partial curve, poor fit] | –
18 | Cc1ccsc1/C=C1\SC(=S)N(CC2CCCO2)C1=O (centres undefined) | active: 1.31 µM | –
19 | COc1ccc(C(C(=O)NC2CCCC2)N(C(=O)c2csnn2)C2CCCC2)cc1 (centres undefined) | inconclusive: 5.22 µM [inhibitor, partial curve] | –
20 | CCN1C(=NCCCCO)N[C@@H](c2cccc(C(F)(F)F)c2)C(C(=O)OC)=C1C | inconclusive: 2.62 µM [inhibitor, full curve, poor fit] | –
21 | O=C(CN1C(=O)CC(c2ccccc2)=Nc2ccccc21)NC1CCCCC1 | inconclusive: 13.1 µM [inhibitor, partial curve, poor fit] | –
22 | Cn1c(Cn2cnc(Cl)c2Cl)nc2ccccc21 | inconclusive: 5.86 µM [inhibitor, partial curve] | –
23 | CS(=O)(=O)NCCSCc1ccc(Cl)cc1 | inconclusive: 0.0522 µM [inhibitor, full curve, poor fit] | –

Row | Structure (SMILES) | Potency | activity change, negative = inhibition
24 | COc1ccc(CCNC(=O)CSc2nc(-c3ccco3)cc(C(F)(F)F)n2)cc1OC | inconclusive: 2.08 µM [inhibitor, full curve, poor fit] | –
25 | COc1cc2c(cc1OC)CN(C(=O)/C=C/c1ccc(F)cc1)CC2 | inconclusive: 11.7 µM [inhibitor, partial curve] | –
26 | Cc1ccc2[nH]c(=O)c(C3=NN(C(=O)CCC(=O)O)C(c4cccs4)C3)c(-c3ccccc3)c2c1 (centres undefined) | inconclusive: 13.1 µM [inhibitor, partial curve, poor fit] | –
27 | Cc1cccc(C)c1-n1c(SCC(=O)NCc2ccco2)nc2ccccc2c1=O | inconclusive: 0.465 µM [inhibitor, full curve, poor fit] | –
28 | CC(C)c1ccc(CN(C)CC(O)c2ccccc2)cc1 (centres undefined) | active: 9.28 µM | –
29 | Cc1ccc2nc(NC(=O)c3ccc(NS(=O)(=O)c4cccs4)cc3)sc2c1 | active: 0.465 µM | –
30 | CN(C)CCC[C@@]1(c2ccc(F)cc2)OCc2cc(C#N)ccc21 | inconclusive: 2.13 µM [inhibitor, full curve] | –
31 | Fc1ccc(F)c(NC(=S)NCCc2ccccc2)c1 | inactive | –
32 | Cc1cccc(CNc2ccc(S(=O)(=O)N3CCCCC3)cc2)c1 | inconclusive: 18.5 µM [inhibitor, single point] | –
33 | CCOc1cccc(-c2c(C(=O)N/N=C(\C)c3cccnc3)nnn2-c2nonc2N)c1 | inconclusive: 18.5 µM [inhibitor, single point] | –
34 | Cc1cc(C(=O)CS(=O)(=O)c2ccccc2)cc(C)c1OC(=O)N(C)C | inconclusive: 3.7 µM [inhibitor, single point] | –
35 | COc1ccc(C(c2nnnn2C(C)(C)C)N2CCN(c3nc4ccccc4s3)CC2)cc1 (centres undefined) | – | inactive: 1.43% [at 5.75 µM]
36 | COc1ccc(C(C(=O)OC(C)CN(C)C)c2ccccc2)cc1 (centres undefined) | inconclusive: 14.7 µM [inhibitor, partial curve, poor fit] | –
37 | COc1ccc(CCNC(=O)c2cnn3c(C(F)F)cc(C)nc23)cc1OC | inconclusive: 1.85 µM [inhibitor, single point] | –
38 | CCN1CCN(c2ncnc3sc4c(c23)CCC(C)C4)CC1 (centres undefined) | inactive | –
39 | CC(NC(=O)c1ccccc1)C(=O)NNC(=O)c1ccccc1Cl (centres undefined) | inactive | –
40 | COc1ccc(C)cc1-n1nnnc1SCn1nnc2ccccc2c1=O | inactive | –
41 | COc1cc2c(cc1O)CCN(C(=O)CSc1nncn1C)[C@@H]2C | inactive | –
42 | CCCC(=O)NCCc1cc2c(C)ccc(C)c2[nH]c1=O | inactive | –
43 | Cc1ccc(-c2nnc(SCCC(=O)N3CCOCC3)o2)cc1 | inconclusive: 10.4 µM [inhibitor, single point] | –
44 | COc1cc(NS(=O)(=O)c2ccc(NC(=O)/C(=C\c3ccccc3OC)NC(=O)c3ccccc3)cc2)nc(OC)n1 | inactive | –
45 | NC(=O)COc1cc2oc(=O)c3c(c2cc1Cl)CCCC3 | inconclusive: 18.5 µM [inhibitor, single point] | –
46 | N#CCC(=O)Nc1ccc(C(=O)NNC(=O)CCN2CCN(c3ccccc3)CC2)cc1 | inconclusive: 11.7 µM [inhibitor, partial curve, poor fit] | –

Pulled by structure from above (4):
Row | Structure (SMILES) | Potency | activity change, negative = inhibition
41 | COc1cc2c(cc1O)CCN(C(=O)CSc1nncn1C)[C@@H]2C | inactive | –
46 | N#CCC(=O)Nc1ccc(C(=O)NNC(=O)CCN2CCN(c3ccccc3)CC2)cc1 | inconclusive: 11.7 µM [inhibitor, partial curve, poor fit] | –
45 | NC(=O)COc1cc2oc(=O)c3c(c2cc1Cl)CCCC3 | inconclusive: 18.5 µM [inhibitor, single point] | –
31 | Fc1ccc(F)c(NC(=S)NCCc2ccccc2)c1 | inactive | –

(listing goes on)

Row | Structure (SMILES) | Potency | activity change, negative = inhibition
47 | COC(CNC(=O)c1ccc(N2CCC3(CC2)OCCO3)c([N+](=O)[O-])c1)OC | inactive | –
48 | COc1ccc(CNC(=O)c2ccccc2SCC(=O)NCc2ccco2)cc1 | inactive | –
49 | CCCC1=[N+](CC(=O)c2ccc(Br)cc2)CCn2cccc21 | inconclusive: 16.5 µM [inhibitor, partial curve, poor fit] | –
50 | CC(C)(C)C1=NN(c2ccc([N+](=O)[O-])cc2)C(c2ccccc2)C1 (centres undefined) | inconclusive: 13.1 µM [inhibitor, partial curve] | –
51 | Cc1cc(C)nc(NC2=NCCS2)n1 | inconclusive: 18.5 µM [inhibitor, single point] | –
52 | c1ccc(CSc2ccc(-c3cccs3)nn2)cc1 | inactive | –
53 | Cc1ccccc1OCC(=O)N/N=C/c1cc2ccccc2nc1Cl | inconclusive: 13.1 µM [inhibitor, single point] | –
54 | Cc1csc2ncc(C(=O)NCc3ccccc3Cl)c(=O)n12 | inconclusive: 6.57 µM [inhibitor, partial curve, poor fit] | –
55 | CCCOP(=O)(c1ccc(N(C)C)cc1)C(O)c1cc(OC)c(OC)c(OC)c1 (centres undefined) | active: 10.4 µM | –
56 | CC(C)n1c(=O)c(C=Nc2ccc(Cl)cc2)c(O)n(Cc2ccco2)c1=O | active: 1.04 µM | –
57 | O=C(OCC(O)COC(=O)c1cccnc1)c1cccnc1 | inconclusive: 5.22 µM [inhibitor, partial curve, poor fit] | –
58 | CC(C)(C)n1cnc2cc(NCc3ccccc3O)ccc21 | inconclusive: 18.5 µM [inhibitor, single point] | –
59 | S=c1[nH]nc(CCc2ccccc2)n1Cc1ccccc1 | inconclusive: 0.0047 µM [inhibitor, full curve, poor fit] | –
60 | CC(=O)Nc1ccc(NC(=O)c2sc(-c3ccccc3)nc2C)cc1 | inconclusive: 2.62 µM [inhibitor, partial curve, poor fit] | –
61 | CCCN(C(=O)CSc1cc(-c2ccccc2)c2ccc(OC)cc2n1)C1CCS(=O)(=O)C1 (centres undefined) | active: 9.28 µM | –
62 | CCOC(=O)C1CCCN(C(=O)c2ccc3c(c2)OCCO3)C1 (centres undefined) | inactive | –
63 | O=C(COc1ccc(Cl)cc1)N1CCN(S(=O)(=O)c2ccccc2)CC1 | inconclusive: 18.5 µM [inhibitor, single point] | –
64 | CCC(CC)c1nnc(NC(=O)C2=NNC(=O)CC2)s1 | inactive | –
65 | Cc1cc(N)n2nc(-c3ccccc3)c(-c3ccccc3)c2n1 | inconclusive: 8.28 µM [inhibitor, single point] | –
66 | CCOc1cccc(C(=O)Nc2ccc(S(=O)(=O)Nc3cc(C)on3)cc2)c1 | inactive | –
67 | CN(Cc1ccc(Cl)s1)C(=O)CSc1nnc(C2CC2)n1C1CC1 | inconclusive: 8.28 µM [inhibitor, partial curve] | –
68 | Cc1sc2nc3n(c(=O)c2c1C)CCCCC3 | inconclusive: 14.7 µM [inhibitor, single point] | –
69 | C[C@@]12C(=O)Nc3ccc(Br)cc3C(=O)N1[C@H]1c3cc(Cl)ccc3OC[C@@H]1[C@@H]2c1ccccc1 | active: 3.29 µM | –
